From PMC5648251 come the findings set out here.

By UniProt entry, the sequences of proteins in these tests, tags left out. Where a name states a change or a piece, a line headed by the entry shows the natural chain unless it says otherwise. Residues count along the entry.
UniProt Q09472: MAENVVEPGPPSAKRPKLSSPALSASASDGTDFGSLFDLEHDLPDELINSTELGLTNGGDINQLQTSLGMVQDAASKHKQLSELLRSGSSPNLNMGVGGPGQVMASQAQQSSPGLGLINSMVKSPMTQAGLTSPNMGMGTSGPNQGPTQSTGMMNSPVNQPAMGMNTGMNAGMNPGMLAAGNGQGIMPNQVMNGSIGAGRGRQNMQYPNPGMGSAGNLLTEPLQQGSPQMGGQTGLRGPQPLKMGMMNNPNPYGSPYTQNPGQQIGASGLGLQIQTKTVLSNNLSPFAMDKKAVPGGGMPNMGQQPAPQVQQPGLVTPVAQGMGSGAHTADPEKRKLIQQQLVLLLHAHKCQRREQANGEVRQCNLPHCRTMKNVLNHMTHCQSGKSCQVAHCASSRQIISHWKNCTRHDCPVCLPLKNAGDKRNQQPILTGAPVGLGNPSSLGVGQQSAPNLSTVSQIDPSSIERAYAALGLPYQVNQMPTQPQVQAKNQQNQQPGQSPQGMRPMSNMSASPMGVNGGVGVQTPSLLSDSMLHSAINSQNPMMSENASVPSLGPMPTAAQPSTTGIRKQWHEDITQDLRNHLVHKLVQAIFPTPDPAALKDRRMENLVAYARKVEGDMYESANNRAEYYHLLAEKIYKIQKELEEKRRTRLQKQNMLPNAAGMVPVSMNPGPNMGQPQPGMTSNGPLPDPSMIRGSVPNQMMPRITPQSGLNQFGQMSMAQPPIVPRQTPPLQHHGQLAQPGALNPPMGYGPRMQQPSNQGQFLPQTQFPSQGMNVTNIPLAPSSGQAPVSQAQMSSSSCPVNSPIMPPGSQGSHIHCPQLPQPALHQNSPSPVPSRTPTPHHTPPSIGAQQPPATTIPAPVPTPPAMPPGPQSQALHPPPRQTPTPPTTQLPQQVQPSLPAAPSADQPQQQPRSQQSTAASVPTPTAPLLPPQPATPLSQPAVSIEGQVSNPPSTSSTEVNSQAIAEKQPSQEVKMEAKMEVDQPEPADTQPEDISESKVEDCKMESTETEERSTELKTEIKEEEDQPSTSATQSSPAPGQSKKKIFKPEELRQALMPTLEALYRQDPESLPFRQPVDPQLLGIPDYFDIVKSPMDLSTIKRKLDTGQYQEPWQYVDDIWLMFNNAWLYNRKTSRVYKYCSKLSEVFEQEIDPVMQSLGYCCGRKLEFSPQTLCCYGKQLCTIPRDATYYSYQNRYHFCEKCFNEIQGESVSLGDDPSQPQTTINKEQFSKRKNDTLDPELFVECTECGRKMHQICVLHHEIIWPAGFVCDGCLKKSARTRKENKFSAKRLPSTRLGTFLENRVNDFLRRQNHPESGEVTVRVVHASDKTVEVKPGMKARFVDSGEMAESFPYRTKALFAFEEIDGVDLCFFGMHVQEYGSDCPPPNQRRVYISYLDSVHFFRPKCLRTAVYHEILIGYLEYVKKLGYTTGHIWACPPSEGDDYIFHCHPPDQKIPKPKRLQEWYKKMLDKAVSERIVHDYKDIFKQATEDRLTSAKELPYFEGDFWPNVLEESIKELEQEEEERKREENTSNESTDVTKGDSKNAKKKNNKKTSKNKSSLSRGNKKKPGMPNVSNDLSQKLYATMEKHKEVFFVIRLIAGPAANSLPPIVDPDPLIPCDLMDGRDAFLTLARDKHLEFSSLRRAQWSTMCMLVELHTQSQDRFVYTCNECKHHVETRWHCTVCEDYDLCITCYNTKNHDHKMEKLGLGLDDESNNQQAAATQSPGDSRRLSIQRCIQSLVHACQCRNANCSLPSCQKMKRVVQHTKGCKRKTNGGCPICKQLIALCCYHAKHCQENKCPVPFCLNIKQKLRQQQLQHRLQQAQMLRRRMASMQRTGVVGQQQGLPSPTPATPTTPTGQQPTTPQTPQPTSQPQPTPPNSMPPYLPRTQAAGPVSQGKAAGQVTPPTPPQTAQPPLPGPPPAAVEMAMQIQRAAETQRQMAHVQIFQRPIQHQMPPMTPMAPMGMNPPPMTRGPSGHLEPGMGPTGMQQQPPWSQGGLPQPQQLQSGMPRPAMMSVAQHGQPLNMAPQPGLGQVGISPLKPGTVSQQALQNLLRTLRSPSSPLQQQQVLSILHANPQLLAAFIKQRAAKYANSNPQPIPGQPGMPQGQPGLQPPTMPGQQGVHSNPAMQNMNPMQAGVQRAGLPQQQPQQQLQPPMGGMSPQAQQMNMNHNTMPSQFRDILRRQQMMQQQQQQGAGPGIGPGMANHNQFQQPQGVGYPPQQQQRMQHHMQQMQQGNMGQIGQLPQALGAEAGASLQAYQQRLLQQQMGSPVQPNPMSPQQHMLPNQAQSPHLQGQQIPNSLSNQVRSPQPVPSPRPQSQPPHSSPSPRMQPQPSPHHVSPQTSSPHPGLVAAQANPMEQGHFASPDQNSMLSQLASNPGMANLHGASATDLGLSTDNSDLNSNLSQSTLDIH
Flag-p300-4 (domain corresponding to the gene sequence from 1069 to 2414 of p300): residues 1069-2414 of Q09472
UniProt P13010: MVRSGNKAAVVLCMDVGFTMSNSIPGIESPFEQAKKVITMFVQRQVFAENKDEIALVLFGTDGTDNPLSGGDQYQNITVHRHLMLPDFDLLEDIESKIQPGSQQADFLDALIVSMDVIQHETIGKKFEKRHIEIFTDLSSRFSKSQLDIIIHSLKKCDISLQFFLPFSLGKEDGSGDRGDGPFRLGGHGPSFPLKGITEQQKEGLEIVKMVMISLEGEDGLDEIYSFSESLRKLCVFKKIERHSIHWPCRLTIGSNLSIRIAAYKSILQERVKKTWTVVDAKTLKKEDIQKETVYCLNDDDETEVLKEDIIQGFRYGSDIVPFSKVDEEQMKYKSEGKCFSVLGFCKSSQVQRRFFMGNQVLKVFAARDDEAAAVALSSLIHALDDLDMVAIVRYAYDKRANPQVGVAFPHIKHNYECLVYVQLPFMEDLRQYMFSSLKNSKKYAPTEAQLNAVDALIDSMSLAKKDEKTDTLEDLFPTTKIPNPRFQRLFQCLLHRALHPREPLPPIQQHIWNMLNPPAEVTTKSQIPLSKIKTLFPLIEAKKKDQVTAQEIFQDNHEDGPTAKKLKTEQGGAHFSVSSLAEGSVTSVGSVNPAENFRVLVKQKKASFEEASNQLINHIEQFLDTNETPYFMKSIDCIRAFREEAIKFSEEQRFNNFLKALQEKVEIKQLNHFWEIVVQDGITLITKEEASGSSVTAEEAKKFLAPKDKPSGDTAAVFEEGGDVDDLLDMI

The target of experiment [1] is p300 (a transcription co-activator) (human (endogenous in RKO, LoVo and SW480)) (UniProt Q09472). Kind of experiment: co-IP; nuclear extracts of RKO, LoVo and SW480 cells; rabbit anti-XRCC5 or anti-p300 antibody at 4°C overnight, protein A/G agarose beads, washed with ice-cold PBS; Western blot for the other protein; non immune rabbit IgG as control. In general terms: In western blotting, separated proteins are transferred to a membrane and probed.

Experiment [2] has as its target Flag-p300-4 (domain corresponding to the gene sequence from 1069 to 2414 of p300) (UniProt Q09472). The experiment can be described thus: co-IP; LoVo cells transfected with flag-tagged p300 domain vectors for 48 hours; nuclear extracts immunoprecipitated with anti-flag tag antibody, blotted with an antibody against XRCC5.
Experiment [3] addresses X-ray repair cross-complementing protein 5 (XRCC5) (human (endogenous in RKO, LoVo and SW480)) (UniProt P13010). The experiment can be described thus: co-IP; nuclear extracts of RKO, LoVo and SW480 cells; rabbit anti-XRCC5 or anti-p300 antibody at 4°C overnight, protein A/G agarose beads, washed with ice-cold PBS; Western blot for the other protein; non immune rabbit IgG as control.

No constants are given. Whether binding was seen depends on the method and setting. Binding seen in cells or lysates may run through a third protein. Some binding calls cover weakened binding; strength is not graded here.

In the case of “X-ray repair cross-complementing protein 5 (XRCC5) (from UniProt P13010 1-732)”, the binding result in experiment [1] and in experiment [2] was “binds” in each case.

On to “p300 (a transcription co-activator) (from UniProt Q09472 1-2414)”, for which the binding result in experiment [3] is “binds”.
